The experiment concerns HEK293A TEAD-LUC reporter. Nature of the experiment: TEAD-luciferase reporter activity (YAP activation), robust Z score vs plate; higher = stronger YAP/TEAD activation. The following applies: 24 h.

Structures can show the parent of a compound that is named as a salt. Some of the results follow. Repeats in this data set agree poorly, so a single value says little.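 In a drug-repurposing library screen, luminescence reads luciferase driven by eight TEAD-binding elements, stably integrated into human kidney-derived cells. Compounds scoring over five robust Z scores above the plate mean are called hits.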

Consider `C[N+]1(CC2COC(c3ccccc3)(C3CCCCC3)O2)CCCCC1` (centres undefined) [Oxapium Iodide], for which the TEAD-luciferase reporter activity (compound concentration: 200 nM) was inactive: 0.233, the TEAD-luciferase reporter activity (compound concentration: 2 uM) was inactive: -1.69 and the TEAD-luciferase reporter activity (compound concentration: 10 uM) was inactive: 2.88.
The like results for `CC(C)OP(=O)(O)COC(CF)Cn1cnc2c(N)ncnc21` (centres undefined) were, in that order, inactive: 1.1, inactive: -0.597 and inactive: -1.3.
Regarding `CN(CCNCc1cc(C(C)(C)C)cc(Br)c1O)CCNC(=O)c1nc(Cl)c(N)nc1N`, the TEAD-luciferase reporter activity (compound concentration: 200 nM) is inactive: 0.324, the TEAD-luciferase reporter activity (compound concentration: 2 uM) was inactive: -0.407 and the TEAD-luciferase reporter activity (compound concentration: 10 uM) was inactive: -1.58.
Turning to `NCCCC(N)(C(=O)O)C(F)F` (centres undefined) [eflornithine, Aventis], the TEAD-luciferase reporter activity (compound concentration: 2 uM) was inactive: 0.764.
With `N#Cc1ccc(Oc2ccc(NC(=O)Nc3ccc(Cl)c(C(F)(F)F)c3)cc2)cc1`, the TEAD-luciferase reporter activity runs as follows: (compound concentration: 200 nM) inactive: -1.11; (compound concentration: 2 uM) inactive: -2.51; (compound concentration: 10 uM) inactive: -0.521.
The like results for `N#CCC(=O)c1nc(-c2cccs2)no1` were, in that order, inactive: -0.0232, inactive: 0.854 and inactive: 1.9.
The like results for `O=S(=O)([O-])CCSSCCS(=O)(=O)[O-]` [dimesna disulfide] were, in that order, inactive: 0.165, inactive: -0.733 and inactive: 0.472.
The like results for `CN1CCN(CCCCN2C(=O)CN(/N=C/c3ccc(-c4ccc(Cl)cc4)o3)C2=O)CC1` [azimilide dihydrochloride] were, in that order, inactive: -0.787, inactive: -1.8 and inactive: -1.07.
`N=C(NNc1ccc(Cl)cc1)c1ccccc1`: the TEAD-luciferase reporter activity reads like this: (compound concentration: 200 nM) inactive: 1.22; (compound concentration: 2 uM) inactive: 3.45; (compound concentration: 10 uM) inactive: -1.01.
The like results for `O=C(Nc1nc(=O)n(C2OC(COC(=O)c3ccccc3)C(OC(=O)c3ccccc3)C2OC(=O)c2ccccc2)cc1F)c1ccccc1` (centres undefined) were, in that order, inactive: 0.784, inactive: -0.532 and inactive: -0.0992.
The like results for `CCC(C(=O)OCCN(CC)CC)c1ccccc1` (centres undefined) were, in that order, inactive: -1.28, inactive: 0.739 and inactive: -0.777.
Take `CN1C2CCC1CC(OC(=O)c1c[nH]c3ccccc13)C2` (centres undefined): the TEAD-luciferase reporter activity (compound concentration: 2 uM) was inactive: 3.53.
As for `CN1C2CCC1CC(OC(=O)c1c[nH]c3ccccc13)C2` (centres undefined) [Tropisetron Hydrochloride], the TEAD-luciferase reporter activity was inactive: 0.583 (compound concentration: 200 nM), inactive: 3.69 (compound concentration: 2 uM) and inactive: 0.357 (compound concentration: 10 uM).
As for `CC[N+](CC)(CC)CCOc1ccc(/C=C/c2ccccc2)cc1`, the TEAD-luciferase reporter activity is inactive: -0.461 (compound concentration: 200 nM), inactive: -1.1 (compound concentration: 2 uM) and inactive: 0.784 (compound concentration: 10 uM).
Take `CC(=O)N1CCN(S(=O)(=O)c2cccc(C(=O)Nc3cc(C)nc4c(F)cc(F)cc34)c2)CC1`: the TEAD-luciferase reporter activity (compound concentration: 200 nM) is inactive: -0.825, the TEAD-luciferase reporter activity (compound concentration: 2 uM) is inactive: -0.53 and the TEAD-luciferase reporter activity (compound concentration: 10 uM) is inactive: -2.21.
For `COc1cccc(CCNC(=O)C2(c3ccc(Cl)cc3)CCOCC2)c1`, the TEAD-luciferase reporter activity by setting is: (compound concentration: 200 nM) inactive: 0.318; (compound concentration: 10 uM) inactive: 1.36.
The like results for `CCCC(=O)N1Cc2ccccc2CC2(CCCCN2C)C1` (centres undefined) were, in that order, inactive: -2.17 and inactive: 3.81.
Consider `C/C(CC(=O)OC(C)(C)C)=N\Nc1ccc(N2CCOCC2)nn1`, for which the TEAD-luciferase reporter activity (compound concentration: 200 nM) is inactive: -1.9, the TEAD-luciferase reporter activity (compound concentration: 2 uM) is inactive: 1.08 and the TEAD-luciferase reporter activity (compound concentration: 10 uM) is inactive: 1.08.
In the case of `CC(C)[C@H]1CC[C@H](C(=O)N[C@H](Cc2ccccc2)C(=O)O)CC1`, the TEAD-luciferase reporter activity was inactive: -0.656 (compound concentration: 200 nM) and inactive: -2.43 (compound concentration: 10 uM).
`CC(C)[C@H]1CC[C@H](C(=O)N[C@H](Cc2ccccc2)C(=O)O)CC1` [nateglinide]: the TEAD-luciferase reporter activity (compound concentration: 2 uM) was inactive: 2.41.
For `N=c1ccn2c(n1)O[C@H]1[C@H](O)[C@@H](CO)O[C@H]12` [Ancitabine hydrochloride], the TEAD-luciferase reporter activity is inactive: -0.012 (compound concentration: 200 nM), inactive: -1.7 (compound concentration: 2 uM) and inactive: -1.58 (compound concentration: 10 uM).
For the molecule `Cc1nnc(-c2cc3c(OC[C@@H](O)CN4CCC(c5ccc(Cl)c(Cl)c5)CC4)cccc3o2)o1`, the TEAD-luciferase reporter activity (compound concentration: 200 nM) was inactive: 0.917, the TEAD-luciferase reporter activity (compound concentration: 2 uM) was inactive: -0.222 and the TEAD-luciferase reporter activity (compound concentration: 10 uM) is inactive: -0.325.
The like results for `CC(C)[N+]1(C)[C@@H]2CC[C@H]1C[C@@H](OC(=O)C(CO)c1ccccc1)C2` (some centres undefined) [ipratropium bromide] were, in that order, inactive: 0.957, inactive: 2.83 and inactive: 1.4.
The like results for `COc1ccc(NC(=O)c2ccc(C(=N)N(C)C)cc2)c(C(=O)Nc2ccc(Cl)cn2)c1` [Betrixaban] were, in that order, inactive: 1.01, inactive: 1.46 and inactive: -0.972.
For `CCCOC(C(=O)OC1CCN(C)CC1)(c1ccccc1)c1ccccc1` [propiverine hydrochloride], the TEAD-luciferase reporter activity by setting is: (compound concentration: 200 nM) inactive: 1.21; (compound concentration: 10 uM) inactive: -0.922.
As for `CCCOC(C(=O)OC1CCN(C)CC1)(c1ccccc1)c1ccccc1` [propiverine hydrochloride ER], where the note is “compound concentration: 2 uM”, the TEAD-luciferase reporter activity was inactive: 1.67.
On to `O=C(NCc1ccc(F)cc1)c1nc(N2CCCCS2(=O)=O)c2cccnc2c1O`, for which the TEAD-luciferase reporter activity (compound concentration: 200 nM) was inactive: -1.06, the TEAD-luciferase reporter activity (compound concentration: 2 uM) was inactive: -0.0946 and the TEAD-luciferase reporter activity (compound concentration: 10 uM) is inactive: -0.162.
The like results for `CC(c1cccc(O)c1)C1CCCN(C)C1` (centres undefined) were, in that order, inactive: 0.249, inactive: -1.52 and inactive: -0.811.
For `OCCNCCOc1ccc(/C(=C(\c2ccccc2)C(F)(F)F)c2ccccc2)cc1`, the TEAD-luciferase reporter activity is inactive: -0.0912 (compound concentration: 200 nM), inactive: -0.832 (compound concentration: 2 uM) and inactive: 0.2 (compound concentration: 10 uM).
The like results for `Cc1nnc(NS(=O)(=O)c2ccc(N)cc2)s1` were, in that order, inactive: -1.46, inactive: 0.204 and inactive: 0.109.
As for `CCCCN1CCC(CNC(=O)c2c3n(c4ccccc24)CCCO3)CC1` [Piboserod hydrochloride], the TEAD-luciferase reporter activity by setting is: (compound concentration: 200 nM) inactive: -0.522; (compound concentration: 2 uM) inactive: -1.14; (compound concentration: 10 uM) inactive: 3.74.
As to `COc1ccc([C@H](O)CN2CCN(c3cccccc3=O)CC2)cc1OC`, the TEAD-luciferase reporter activity is inactive: -1.34 (compound concentration: 200 nM), inactive: 2.56 (compound concentration: 2 uM) and inactive: -0.415 (compound concentration: 10 uM).
Take `Cc1cc(CO)nc2cc3c(cc12)OC(C)(C)[C@H](O)[C@H]3NCCc1ccccc1`: the TEAD-luciferase reporter activity (compound concentration: 200 nM) was inactive: -0.0145, the TEAD-luciferase reporter activity (compound concentration: 2 uM) was inactive: -0.766 and the TEAD-luciferase reporter activity (compound concentration: 10 uM) is inactive: -0.907.
The like results for `Nc1ncnc2c1ncn2C1OC(COP(=O)(O)O)C(O)C1O` (centres undefined) [vidarabine sodium phosphate] were, in that order, inactive: -1.94, inactive: 2.01 and inactive: -0.122.
The like results for `O=C1Nc2c(Cl)ccc(O[C@H]3C[C@H](C(=O)O)C3)c2C2(CCCCC2)N1` were, in that order, inactive: -0.833, inactive: 1.05 and active: 6.28.
Consider `COC[C@H]1CN(c2ccc(OCCC(O)C(F)(F)F)cc2)C(=O)O1` (some centres undefined), for which the TEAD-luciferase reporter activity is, setting by setting: (compound concentration: 200 nM) inactive: 0.268; (compound concentration: 2 uM) inactive: -0.176; (compound concentration: 10 uM) inactive: 0.354.
As for `Cc1cn(C2C=CC(CO)O2)c(=O)[nH]c1=O` (centres undefined) [stavudine], where the note is “compound concentration: 2 uM”, the TEAD-luciferase reporter activity was inactive: 1.23.
Regarding `Cc1cn(C2C=CC(CO)O2)c(=O)[nH]c1=O` (centres undefined), the TEAD-luciferase reporter activity was inactive: -0.969 (compound concentration: 200 nM) and inactive: 1.51 (compound concentration: 10 uM).

The values above are taken from the supplement of paper PMC10735217.
